Measurements from US20250352395A1, “ANTIMICROBIAL HEMOSTATIC DEVICES AND METHODS OF USE AND MAKING” (TELEFLEX LIFE SCIENCES II LLC, priority 2024, published 2025).
Where a name gives a salt, the structure may show the parent alone. Some of these results come from one statement about several compounds together. At least one structure is not confirmed: it was looked up by name or label, or the drawing left a doubt.

Test system: whole sheep blood
Experiment: Tilt Tube Clot Test
Type: biochemical
Details: Example 4, FIG. 1; CHD 300, 150, 50 μg/cm^2; CHA 30, 20, 10 μg/cm^2; kaolin 670.95 μg/cm^2
Description: Beakers containing the mixtures were placed on a magnetic stirrer with a stirring rod placed therein. The stir plate was set to 300 RPM. Once the mixture appeared uniform, 130 μL of the mixture was pipetted into each of the appropriately labeled tubes. 20 samples per concentration were used. The samples were tested in a Tilt Tube Clot Test method described below. A water bath was prepared to 37±1° C., and a test tube holder was placed therein. One mL of whole sheep blood at 37° C. was pipetted into each test tube. 150 μL of CaCl2 at 37° C. was then pipetted into a tube and a timer was then started (time “0”). Tubes were capped and gently shaken twice to ensure that the CaCl2 was completely mixed with the blood, and then placed in the water bath. Tubes were tilted by 90° at 15 second intervals, beginning when the timer reads 45 seconds. The time to clot was determined by visual inspection and the clot time was recorded. A clot is defined as a solid mass that may or may not adhere to bottom of test tube. The average clot time for control blood and hemostatic agents was then calculated. […] Samples from Tests 11-13 and Test 10 from Example 2 were then further separated into 0.5″ by 0.5″ squares and added to test tubes. A Tilt Tube Clot Test, as described in Example 1, was performed.

| SMILES | clot time [s] |
| --- | --- |
| CC(=O)O.CC(=O)O.NC(=N\CCCCCC/N=C(N)/N=C(\N)Nc1ccc(Cl)cc1)/N=C(\N)Nc1ccc(Cl)cc1 [CHA, Chlorhexidine diacetate] | ≥ 150 |
| [H]/N=C(\N/C(=N/[H])NCCCCCCNC(=N)NC(=N)Nc1ccc(Cl)cc1)Nc1ccc(Cl)cc1 [CHD, Chlorhexidine dihydrochloride] | ≥ 150 |
